Measurements taken from the supplement of paper PMC11006884.
This is a selection; strong and weak results do not stand in their true shares.

Protein sequences, listed by entry. Tags and fused reporters are not part of them. Lines headed by an entry give the natural chain unless they say otherwise; changes in a name come on top.
UniProt P53396: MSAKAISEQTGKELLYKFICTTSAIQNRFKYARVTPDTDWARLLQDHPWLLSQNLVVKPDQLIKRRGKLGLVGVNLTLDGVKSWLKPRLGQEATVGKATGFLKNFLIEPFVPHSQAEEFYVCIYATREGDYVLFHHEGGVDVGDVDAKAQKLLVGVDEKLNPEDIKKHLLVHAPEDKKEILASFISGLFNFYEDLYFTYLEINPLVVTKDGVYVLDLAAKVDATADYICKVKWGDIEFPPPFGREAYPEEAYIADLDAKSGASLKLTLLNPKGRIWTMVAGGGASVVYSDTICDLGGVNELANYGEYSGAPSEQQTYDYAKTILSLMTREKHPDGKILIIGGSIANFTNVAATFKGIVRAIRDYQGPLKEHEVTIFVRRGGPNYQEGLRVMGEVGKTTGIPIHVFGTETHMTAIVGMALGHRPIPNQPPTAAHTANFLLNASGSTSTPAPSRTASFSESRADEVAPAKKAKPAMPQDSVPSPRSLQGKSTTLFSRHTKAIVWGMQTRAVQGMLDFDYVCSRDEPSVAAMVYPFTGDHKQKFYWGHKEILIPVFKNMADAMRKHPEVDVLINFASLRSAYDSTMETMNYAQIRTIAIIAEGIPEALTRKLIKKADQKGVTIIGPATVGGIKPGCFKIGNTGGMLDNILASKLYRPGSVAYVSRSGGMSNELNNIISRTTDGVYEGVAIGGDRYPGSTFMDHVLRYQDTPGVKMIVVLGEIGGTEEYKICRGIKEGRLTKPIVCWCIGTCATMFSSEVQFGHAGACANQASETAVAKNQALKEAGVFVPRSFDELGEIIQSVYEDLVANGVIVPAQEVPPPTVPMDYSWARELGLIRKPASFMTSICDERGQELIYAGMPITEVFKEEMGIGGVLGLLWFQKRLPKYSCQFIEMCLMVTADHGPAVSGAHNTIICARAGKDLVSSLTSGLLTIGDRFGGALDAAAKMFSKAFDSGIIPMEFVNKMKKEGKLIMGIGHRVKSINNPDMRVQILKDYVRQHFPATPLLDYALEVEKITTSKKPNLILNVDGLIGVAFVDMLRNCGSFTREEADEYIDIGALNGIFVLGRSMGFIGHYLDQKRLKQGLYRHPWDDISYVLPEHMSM
UniProt P53384: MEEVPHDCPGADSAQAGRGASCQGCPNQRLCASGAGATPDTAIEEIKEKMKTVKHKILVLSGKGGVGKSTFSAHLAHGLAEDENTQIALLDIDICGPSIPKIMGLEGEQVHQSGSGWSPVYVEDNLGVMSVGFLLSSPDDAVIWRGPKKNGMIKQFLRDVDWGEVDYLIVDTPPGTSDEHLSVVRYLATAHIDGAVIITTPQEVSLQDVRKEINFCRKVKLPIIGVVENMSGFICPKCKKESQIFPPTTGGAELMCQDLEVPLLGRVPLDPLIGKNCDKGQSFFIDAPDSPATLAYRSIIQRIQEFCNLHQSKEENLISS
UniProt P55199: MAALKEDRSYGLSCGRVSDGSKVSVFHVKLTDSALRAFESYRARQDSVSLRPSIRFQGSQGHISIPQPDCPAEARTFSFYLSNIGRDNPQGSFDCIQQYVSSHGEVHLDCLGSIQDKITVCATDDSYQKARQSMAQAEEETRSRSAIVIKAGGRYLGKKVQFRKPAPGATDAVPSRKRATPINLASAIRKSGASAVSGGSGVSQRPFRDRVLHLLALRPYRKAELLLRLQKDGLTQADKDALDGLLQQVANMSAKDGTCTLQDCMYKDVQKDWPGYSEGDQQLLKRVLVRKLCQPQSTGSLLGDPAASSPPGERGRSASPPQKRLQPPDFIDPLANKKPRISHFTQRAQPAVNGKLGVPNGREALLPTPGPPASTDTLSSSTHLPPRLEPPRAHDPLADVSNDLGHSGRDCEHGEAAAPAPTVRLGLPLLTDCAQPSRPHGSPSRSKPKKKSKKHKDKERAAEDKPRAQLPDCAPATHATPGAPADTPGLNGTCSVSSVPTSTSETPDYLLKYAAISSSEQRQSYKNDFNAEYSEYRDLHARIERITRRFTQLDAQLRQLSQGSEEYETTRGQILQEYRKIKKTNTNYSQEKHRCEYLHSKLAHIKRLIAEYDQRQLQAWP
UniProt P60953, whole entry, looked up: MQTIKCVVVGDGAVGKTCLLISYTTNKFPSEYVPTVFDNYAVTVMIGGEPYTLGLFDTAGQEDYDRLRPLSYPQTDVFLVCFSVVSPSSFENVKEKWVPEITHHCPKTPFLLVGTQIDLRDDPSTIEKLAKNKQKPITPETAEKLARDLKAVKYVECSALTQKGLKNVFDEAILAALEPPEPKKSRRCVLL
UniProt P52789: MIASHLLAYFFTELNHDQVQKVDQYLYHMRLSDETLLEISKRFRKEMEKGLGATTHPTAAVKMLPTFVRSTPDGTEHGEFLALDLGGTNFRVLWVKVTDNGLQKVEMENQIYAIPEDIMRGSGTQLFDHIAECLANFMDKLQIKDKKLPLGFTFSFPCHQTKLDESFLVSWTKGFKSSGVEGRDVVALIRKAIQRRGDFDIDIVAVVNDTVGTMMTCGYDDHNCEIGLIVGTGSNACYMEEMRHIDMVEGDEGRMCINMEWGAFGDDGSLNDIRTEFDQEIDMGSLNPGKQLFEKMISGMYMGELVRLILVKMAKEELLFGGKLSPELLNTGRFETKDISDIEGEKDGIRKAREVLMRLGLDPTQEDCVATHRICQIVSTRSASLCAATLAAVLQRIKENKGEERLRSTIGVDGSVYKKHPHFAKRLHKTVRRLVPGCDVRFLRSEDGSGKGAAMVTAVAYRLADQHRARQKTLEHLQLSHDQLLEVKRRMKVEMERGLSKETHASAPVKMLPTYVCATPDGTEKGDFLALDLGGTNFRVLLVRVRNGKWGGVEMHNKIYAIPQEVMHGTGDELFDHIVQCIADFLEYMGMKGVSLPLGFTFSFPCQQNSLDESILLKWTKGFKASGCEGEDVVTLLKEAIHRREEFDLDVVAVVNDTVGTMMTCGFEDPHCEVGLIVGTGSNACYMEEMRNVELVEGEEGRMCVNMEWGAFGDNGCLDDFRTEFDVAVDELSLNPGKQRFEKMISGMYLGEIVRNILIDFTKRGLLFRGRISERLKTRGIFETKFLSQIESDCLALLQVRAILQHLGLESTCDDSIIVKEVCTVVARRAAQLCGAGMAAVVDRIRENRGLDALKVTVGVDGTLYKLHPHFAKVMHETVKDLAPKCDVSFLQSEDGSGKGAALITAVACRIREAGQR
UniProt P52597: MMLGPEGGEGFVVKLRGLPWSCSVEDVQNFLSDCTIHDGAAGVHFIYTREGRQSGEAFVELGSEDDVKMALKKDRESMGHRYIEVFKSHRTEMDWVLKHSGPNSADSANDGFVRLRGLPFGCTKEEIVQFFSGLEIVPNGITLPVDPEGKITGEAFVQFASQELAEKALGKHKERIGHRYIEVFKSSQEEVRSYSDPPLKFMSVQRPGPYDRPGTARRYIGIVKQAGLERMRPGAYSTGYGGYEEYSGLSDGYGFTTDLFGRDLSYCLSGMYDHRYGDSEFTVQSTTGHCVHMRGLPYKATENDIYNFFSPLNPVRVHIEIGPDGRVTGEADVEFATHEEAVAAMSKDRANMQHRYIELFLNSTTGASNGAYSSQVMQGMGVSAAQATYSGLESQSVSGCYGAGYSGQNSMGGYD
UniProt P51812, whole entry, looked up: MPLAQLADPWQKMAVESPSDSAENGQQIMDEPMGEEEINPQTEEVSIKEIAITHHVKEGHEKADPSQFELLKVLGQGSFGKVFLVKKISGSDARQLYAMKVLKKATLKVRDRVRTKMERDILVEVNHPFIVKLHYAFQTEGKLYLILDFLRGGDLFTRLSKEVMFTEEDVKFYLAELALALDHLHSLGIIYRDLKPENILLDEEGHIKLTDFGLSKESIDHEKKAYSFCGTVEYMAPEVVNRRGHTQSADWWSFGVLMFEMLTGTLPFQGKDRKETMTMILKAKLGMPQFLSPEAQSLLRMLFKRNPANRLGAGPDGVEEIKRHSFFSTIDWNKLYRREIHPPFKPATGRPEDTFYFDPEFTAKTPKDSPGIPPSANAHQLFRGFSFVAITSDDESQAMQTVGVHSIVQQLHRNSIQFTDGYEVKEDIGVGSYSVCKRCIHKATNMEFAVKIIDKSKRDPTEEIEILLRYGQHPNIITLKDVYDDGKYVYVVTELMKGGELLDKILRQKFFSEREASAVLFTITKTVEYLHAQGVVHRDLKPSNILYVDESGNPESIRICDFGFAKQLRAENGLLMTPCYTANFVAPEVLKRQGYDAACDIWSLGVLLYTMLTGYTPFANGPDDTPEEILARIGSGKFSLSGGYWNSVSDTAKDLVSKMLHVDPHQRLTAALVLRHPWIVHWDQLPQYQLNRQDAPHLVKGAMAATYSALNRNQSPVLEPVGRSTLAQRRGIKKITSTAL
UniProt P53041: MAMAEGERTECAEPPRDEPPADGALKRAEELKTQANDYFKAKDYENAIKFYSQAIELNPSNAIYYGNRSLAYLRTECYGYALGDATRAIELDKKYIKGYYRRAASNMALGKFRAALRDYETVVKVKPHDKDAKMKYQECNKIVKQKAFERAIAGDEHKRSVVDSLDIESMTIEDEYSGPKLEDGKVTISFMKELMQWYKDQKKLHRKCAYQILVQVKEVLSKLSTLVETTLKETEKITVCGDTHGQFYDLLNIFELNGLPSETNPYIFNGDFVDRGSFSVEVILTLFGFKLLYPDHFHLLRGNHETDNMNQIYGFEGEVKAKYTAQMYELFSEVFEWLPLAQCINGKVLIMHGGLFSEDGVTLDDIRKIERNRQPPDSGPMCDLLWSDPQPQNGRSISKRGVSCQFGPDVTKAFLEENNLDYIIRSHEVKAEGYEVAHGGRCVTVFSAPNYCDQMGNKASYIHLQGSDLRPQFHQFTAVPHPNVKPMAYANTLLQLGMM
UniProt P53350, whole entry, looked up: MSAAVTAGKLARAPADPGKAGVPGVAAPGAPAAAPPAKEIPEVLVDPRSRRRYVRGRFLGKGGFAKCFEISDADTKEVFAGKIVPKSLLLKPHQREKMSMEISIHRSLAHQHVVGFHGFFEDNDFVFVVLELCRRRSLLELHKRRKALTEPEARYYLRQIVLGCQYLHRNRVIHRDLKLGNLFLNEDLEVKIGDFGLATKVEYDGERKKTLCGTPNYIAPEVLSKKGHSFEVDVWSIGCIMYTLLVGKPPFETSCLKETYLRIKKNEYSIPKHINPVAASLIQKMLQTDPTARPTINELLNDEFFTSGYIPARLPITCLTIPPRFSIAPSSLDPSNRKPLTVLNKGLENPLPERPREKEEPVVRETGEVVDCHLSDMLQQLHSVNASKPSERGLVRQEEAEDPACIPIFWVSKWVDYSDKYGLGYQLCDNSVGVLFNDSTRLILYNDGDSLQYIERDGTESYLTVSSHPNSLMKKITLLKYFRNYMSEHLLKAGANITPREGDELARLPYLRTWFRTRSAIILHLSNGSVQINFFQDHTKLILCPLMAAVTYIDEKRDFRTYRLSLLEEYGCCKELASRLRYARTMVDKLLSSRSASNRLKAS
UniProt P54136: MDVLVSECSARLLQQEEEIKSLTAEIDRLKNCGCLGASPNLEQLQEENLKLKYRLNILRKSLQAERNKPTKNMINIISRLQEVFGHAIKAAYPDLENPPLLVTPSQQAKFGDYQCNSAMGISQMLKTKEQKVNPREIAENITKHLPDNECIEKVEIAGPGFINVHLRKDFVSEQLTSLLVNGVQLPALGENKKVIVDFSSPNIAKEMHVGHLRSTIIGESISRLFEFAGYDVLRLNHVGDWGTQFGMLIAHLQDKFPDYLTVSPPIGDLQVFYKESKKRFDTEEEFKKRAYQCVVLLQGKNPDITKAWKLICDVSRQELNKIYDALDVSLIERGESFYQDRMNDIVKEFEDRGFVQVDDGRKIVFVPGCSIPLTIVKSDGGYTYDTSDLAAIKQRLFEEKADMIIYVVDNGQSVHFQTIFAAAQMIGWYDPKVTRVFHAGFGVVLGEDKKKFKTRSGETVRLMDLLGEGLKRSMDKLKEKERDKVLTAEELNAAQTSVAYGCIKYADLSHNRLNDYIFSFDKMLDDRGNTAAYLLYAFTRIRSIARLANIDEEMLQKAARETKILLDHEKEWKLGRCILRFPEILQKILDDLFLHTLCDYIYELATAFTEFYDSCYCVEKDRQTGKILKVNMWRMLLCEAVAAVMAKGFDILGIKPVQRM

Compound: COC(=O)C#Cc1ccccc1 [methyl 3-phenylpropiolate]
Assay: log2 ratio of iodoacetamide-alkyne labeling of the cysteine site, DMSO over compound (competition); higher = stronger covalent engagement of the cysteine by the compound, active = 1 or more
Conditions: 500 µM; treatment time 1 h; system: HEK293T cell lysate
Method in brief: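 Electrophile (500 µM) or vehicle was added to HEK293T lysate (2 mg/mL) for 1 h at ambient temperature before iodoacetamide alkyne labelling (1 h) and click coupling to sCIP-TMT reagents. After pooling, overnight trypsin digestion at 37 °C, streptavidin enrichment and acid elution, peptides were measured by Orbitrap Eclipse LC-MS/MS with FAIMS and quantified in FragPipe. Each cysteine's log2 competition ratio compares mean control-channel with mean compound-channel reporter intensity, control over compound. Data came from duplicate channels across three replicates, excluding cysteines quantified in only one replicate.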

log2 ratio of iodoacetamide-alkyne labeling, inactive:
ACLY C845 (UniProt P53396) 0.135
NUBP1 C235 (UniProt P53384) 0.337
ELL C473 (UniProt P55199) 0.872
NEK4 C401 (UniProt P51957) 0.279
UniProt P60953_C157 -0.0113
HK2 C628 (UniProt P52789) -0.0599
RPS3A C96 (UniProt P61247) 0.0695
HNRNPF C290 (UniProt P52597) 0.0362
UniProt P51812_C579 0.153
PPP5C C452 (UniProt P53041) 0.0827
PLK1 C212 (UniProt P53350) 0.74
CTBP2 C140 (UniProt P56545) -0.121
ALDH18A1 C606 (UniProt P54886) 0.31
RARS C34 (UniProt P54136) 0.605
